In PubChem BioAssay AID1345085 (National Center for Advancing Translational Sciences (NCATS), 2018):
This list was built around the results that the source calls inconclusive (neither active nor inactive); the mix of calls is not that of the screen. Where the call is inconclusive, the potency comes from a doubtful curve fit. The source made the active and inactive calls. The call rests on the fitted dose curve; in most records, active means well fitted cell-killing curve with a large enough effect; inconclusive means small, poorly fitted or top-dose-only effect, or effect the other way; inactive means no such curve, though single readings can be large or run the other way.

tested on: CASKI; assay: Confirmatory qHTS for gynecologic anti-cancer compounds from libraries of approved drugs and bioactive compounds; settings: gynecologic cancer cell panel viability, ATPlite luminescence, 48 h; series mostly up to 57.6 µM; further: nearly all actives have a fitted effect of over 55% in size
How it was run: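 1,000 cells/well; 16 h pre-incubation 37 C, 5% CO2; pin-transferred cpd in DMSO, 11 conc (1:3), 57.5 uM–0.977 nM; 48 h; ATPlite, 15 min RT; luminescence → IC50.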
Potency means the concentration at half of the fitted maximal effect.

Compound | Potency
CN[C@@H](C)C(=O)N[C@H]1CN(C(=O)CC(C)C)CC[C@H]2CC[C@@H](C(=O)NC(c3ccccc3)c3ccccc3)N2C1=O | inactive
COc1ccc(-c2nc3ccc(C4=NNC(=O)CC4C)cc3[nH]2)cc1 (stereo not drawn) | inconclusive: 12.2 µM [cytotoxic, full curve, poor fit]
OCCNC1CCCc2c1[nH]c1ccc(-c3ccccc3)cc21 (stereo not drawn) | active: 30.6 µM
